This note sets out measurements from patent publication US20260029420A1, “ANTI-CB2 ANTIBODIES AND THEIR USE IN A FLOW CYTOMETRY ASSAY TO MEASURE CELL SURFACE CB2 EXPRESSION” (Hoffmann-La Roche Inc., priority 2022, published 2026).

Amino acid sequences for entries named in this document (tags omitted). A change or cut given only in a name is not applied to a line headed by its entry.
UniProt P43219: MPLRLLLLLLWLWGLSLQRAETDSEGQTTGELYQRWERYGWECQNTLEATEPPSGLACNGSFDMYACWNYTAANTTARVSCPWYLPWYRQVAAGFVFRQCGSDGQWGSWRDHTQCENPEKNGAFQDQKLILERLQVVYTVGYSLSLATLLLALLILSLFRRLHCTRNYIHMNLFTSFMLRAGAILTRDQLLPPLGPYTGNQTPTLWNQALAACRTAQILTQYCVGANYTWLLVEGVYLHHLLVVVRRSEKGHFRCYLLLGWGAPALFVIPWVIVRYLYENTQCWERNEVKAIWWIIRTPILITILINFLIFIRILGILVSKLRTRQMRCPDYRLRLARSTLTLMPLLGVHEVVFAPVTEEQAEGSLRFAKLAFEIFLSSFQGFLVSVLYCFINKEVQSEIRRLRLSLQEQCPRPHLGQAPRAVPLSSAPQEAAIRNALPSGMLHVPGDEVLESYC

No constants are given. Whether binding was seen depends on the method and setting.

Assay [1] deals with pANITA3.1 ratGIPR (DB388) (rat) (UniProt P43219). The assay is described as follows: Western blot, cell lysate.
Assay [2] shares this target. The assay is described as follows: immunoprecipitation, cell lysate.

B1: Anti-CB2 clone 1/622 (antibody, IgG3, V domains shown)
VH: EVQLQQSGPELVKPGASVKISCKTSGYTFTEYTMHWVRQSHGKSLEWIGGIDRYNGDTYYNQKFKDKATLTVDRSSSTAYMELRSLTSEDSAVYFCARNGAMDYWGQGISVTVSS
VL: DVVMTQTPLSLPVSLGDQASISCRSSQSLVHSNGNTYLHWFLQKPGQSPKLLIYKVSIRFSGVPDRFSGSGSGTDFTLKISRVEAEDLGVYFCSQSTHVPPLTFGAGTKLELKR
Regarding B1, the binding result in assay [1] and in assay [2] was “no binding” in each case.
